Results as given in PubChem BioAssay AID180 (DTP/NCI, 2004).
The list does not hold the whole screen: it is rich in T/C values a quarter to a half above the control, in often repeated tests (any T/C) and in doses without a T/C. Further doses and runs are listed elsewhere. T/C is the treated group as % of the vehicle group. Schedules are NCI's codes, read here as Q, the interval in days (D) or hours (H), X, the number of doses. Some T/C values are followed by the survivors on the day toxicity was checked, most often the fifth; where none is given, no animal had died by that day. Some entries were tested several times; the values are given in rising order. Additions like (4×) say how often a value occurs here. Some entries give survivors of the animals treated and no T/C: the source files T/C as zero there, which appears to mark a toxic dose or a test without result, not a measured value. Survivors were counted at the toxicity check, usually on the fifth day, unless a day is given; later deaths do not show. Some schedules carry Z or #; the key to these is not given.

System: BDF1 mice, Adenocarcinoma 755 s.c., tumor weight T/C
Assay: NCI In Vivo Anticancer Drug Screen. Data for tumor model Adenocarcinoma 755 (subcutaneous) in B6D2F1 (BDF1) mice
Settings: T/C endpoint: mean tumor weight, higher T/C = larger tumour; for T/C: evaluated on day 12
Procedure, shortened: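 Readout: T/C, i.e. treated-group measurement over vehicle-control measurement. Endpoint is survival or tumor size in tumor-bearing mice given compound.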

[1] = dose: 200.0 mg/kg/injection, schedule: Q01DX011 (ip), vehicle: other
[2] = dose: 100.0 mg/kg/injection, schedule: Q01DX011 (ip), vehicle: carboxymethylcellulose (CMC)
[3] = dose: 300.0 mg/kg/injection, schedule: Q01DX011 (ip), vehicle: methylcellulose (MC)

Q: `CCCCCSc1nc(N)nc2nc[nH]c12` was tested. Which survivor count (dose: 200.0 mg/kg/injection, schedule: Q01DX011 (ip), vehicle: saline) did it give?
A: 4 of 10

Q: With `CC1=C(O)c2ccccc2C(=O)C1=O` as the compound, how does the survivor count [1] read?
A: 1 of 10

Q: With `CCCCN(C)/N=N/c1nc[nH]c1C(N)=O` as the compound, how does the survivor count (dose: 90.0 mg/kg/injection, schedule: Q01DX011 (ip), vehicle: carboxymethylcellulose (CMC)) read?
A: 5 of 10

Q: What about the survivor count [2] of the same compound?
A: 1 of 10

Q: And the survivor count (dose: 125.0 mg/kg/injection, schedule: Q01DX011 (ip), vehicle: carboxymethylcellulose (CMC))?
A: 0 of 10

Q: For `CCCCCCC(=O)NC1=C(N2CC2)C(=O)C(NC(=O)CCCCCC)=C(N2CC2)C1=O`, which survivor count (dose: 22.5 mg/kg/injection, schedule: Q01DX011 (ip), vehicle: carboxymethylcellulose (CMC)) is on record?
A: 6 of 10

Q: `C[C@@H]1C[C@H]2[C@@H]3CCC4=CC(=O)C=C[C@]4(C)[C@@]3(F)[C@@H](O)C[C@]2(C)[C@@]1(O)C(=O)CO` was tested. Which survivor count (dose: 14.0 mg/kg/injection, schedule: Q01DX011 (sc), vehicle: steroid suspending solution) did it give?
A: 7 of 12

Q: Which survivor count (dose: 36.0 mg/kg/injection, schedule: Q01DX011 (ip), vehicle: methylcellulose (MC)) does the source give for `CN1CC[C@]23c4c5ccc(O)c4O[C@H]2C(=O)CC[C@@]3(O)[C@H]1C5` here?
A: 5 of 10

Q: For `Brc1ncc2[nH]cnc2n1`, which survivor count (dose: 225.0 mg/kg/injection, schedule: Q01DX011 (ip), vehicle: methylcellulose (MC)) is on record?
A: 2 of 10

Q: How did the survivor count (dose: 25.0 micrograms/kg/injection, schedule: Q01DX011 (ip), vehicle: water) turn out when `COC1=C(N)C(=O)c2nc(-c3nc(C(=O)O)c(C)c(-c4ccc(OC)c(OC)c4O)c3N)ccc2C1=O` was run?
A: 6 of 10

Q: For `Cc1n[nH]c(=O)[nH]c1=O`, which T/C (dose: 100.0 mg/kg/injection, schedule: Q01DX011 (ip), vehicle: other) is on record?
A: 147 % of control

Q: And the T/C [1]?
A: 134 % of control

Q: How did the survivor count (dose: 160.0 mg/kg/injection, schedule: Q01DX011 (ip), vehicle: carboxymethylcellulose (CMC)) turn out when `O=S1(=O)CCCO1` was run?
A: 1 of 10

Q: With `NNC(=O)CCC(N)C(=O)O` (configuration not stated) as the compound, how does the T/C (dose: 43.05 mg/kg/injection, schedule: Q01DX011 (ip), vehicle: carboxymethylcellulose (CMC)) read?
A: 134 % of control

Q: And the survivor count (dose: 86.1 mg/kg/injection, schedule: Q01DX011 (ip), vehicle: carboxymethylcellulose (CMC))?
A: 6 of 10

Q: `CCCCCCCCCCCC[N+](C)(C)c1ncnc2nc[nH]c12` was tested. Which T/C (dose: 6.0 mg/kg/injection, schedule: Q01DX011 (ip), vehicle: carboxymethylcellulose (CMC)) did it give?
A: 129 % of control

Q: For `CC(=O)OCC1CCCC(n2cnc3c(Cl)ncnc32)O1` (configuration not stated), which survivor count (dose: 500.0 mg/kg/injection, schedule: Q01DX011 (ip), vehicle: methylcellulose (MC)) is on record?
A: 2 of 10

Q: What does the source list for `OC1CC([CH2][Hg][Cl])OC([CH2][Hg][Cl])C1` (configuration not stated)?
A: survivor count [2]: 0 of 10; survivor count (dose: 200.0 mg/kg/injection, schedule: Q01DX011 (ip), vehicle: carboxymethylcellulose (CMC)): 0 of 10

Q: `Cc1nnc2ncnc(N)c2n1` was tested. Which survivor count (dose: 45.0 mg/kg/injection, schedule: Q01DX011 (ip), vehicle: carboxymethylcellulose (CMC)) did it give?
A: 0 of 10

Q: And the survivor count (dose: 60.0 mg/kg/injection, schedule: Q01DX011 (ip), vehicle: carboxymethylcellulose (CMC))?
A: 0 of 10

Q: Which survivor count (dose: 1.0 mg/kg/injection, schedule: Q01DX011 (oral), vehicle: carboxymethylcellulose (CMC)) does the source give for `CSc1ncnc2nc[nH]c12` here?
A: 5 of 10

Q: What about the survivor count (dose: 15.0 mg/kg/injection, schedule: Q01DX011 (oral), vehicle: carboxymethylcellulose (CMC)) of the same compound?
A: 4 of 10

Q: And the survivor count (dose: 25.0 mg/kg/injection, schedule: Q01DX011 (oral), vehicle: carboxymethylcellulose (CMC))?
A: 6 of 10

Q: What about the survivor count (dose: 100.0 mg/kg/injection, schedule: Q#A X022 (ip), vehicle: carboxymethylcellulose (CMC)) of the same compound?
A: 4 of 10

Q: What about the survivor count (dose: 300.0 mg/kg/injection, schedule: Q03DX004 (ip), vehicle: carboxymethylcellulose (CMC)) of the same compound?
A: 3 of 10

Q: What about the survivor count (dose: 500.0 mg/kg/injection, schedule: Q01DX001 (ip), vehicle: carboxymethylcellulose (CMC)) of the same compound?
A: 3 of 10 and 4 of 10

Q: And the survivor count (dose: 1000.0 mg/kg/injection, schedule: Q01DX001 (ip), vehicle: carboxymethylcellulose (CMC))?
A: 4 of 10

Q: With `OCC1OC(n2cnc3c(=S)nc[nH]c32)C(O)C1O` (configuration not stated) as the compound, how does the T/C (dose: 0.15 mg/kg/injection, schedule: Q01DX011 (ip), vehicle: methylcellulose (MC)) read?
A: 17 [8 of 10 alive], 36, 38, 39 [8 of 10 alive], 46 [9 of 10 alive], 48, 49, 59, 61 [9 of 10 alive], 79, 84, 89 % of control [9 of 10 alive]

Q: What about the T/C (dose: 0.6 mg/kg/injection, schedule: Q01DX011 (ip), vehicle: methylcellulose (MC)) of the same compound?
A: 29, 32, 33 [8 of 10 alive], 37, 40, 46 [9 of 10 alive], 56, 59, 62, 62 [9 of 10 alive], 70, 72 % of control

Q: What about the T/C (dose: 1.5 mg/kg/injection, schedule: Q01DX011 (ip), vehicle: methylcellulose (MC)) of the same compound?
A: 5 [7 of 10 alive], 12 [7 of 10 alive], 12 [8 of 10 alive], 23 (2×), 24 [8 of 10 alive], 28 [9 of 10 alive], 33, 57 % of control [8 of 10 alive]

Q: What about the T/C (dose: 2.5 mg/kg/injection, schedule: Q01DX011 (ip), vehicle: methylcellulose (MC)) of the same compound?
A: 3 [9 of 10 alive], 5 [9 of 10 alive] (2×), 8 [9 of 10 alive], 10, 11, 14, 15, 16 [9 of 10 alive], 17, 17 [8 of 10 alive], 19 % of control [9 of 10 alive]

Q: What about the T/C (dose: 3.0 mg/kg/injection, schedule: Q01DX011 (ip), vehicle: methylcellulose (MC)) of the same compound?
A: 4 [8 of 10 alive], 5 [8 of 10 alive], 6 [8 of 10 alive], 7, 8 [9 of 10 alive], 11, 21, 28, 35 % of control [9 of 10 alive]

Q: And the T/C (dose: 6.0 mg/kg/injection, schedule: Q01DX011 (ip), vehicle: methylcellulose (MC))?
A: 1 [8 of 10 alive], 1 [9 of 10 alive], 2, 4 [9 of 10 alive], 7 [8 of 10 alive], 8, 8 [8 of 10 alive], 9 [9 of 10 alive], 10 % of control [9 of 10 alive]

Q: And the T/C (dose: 10.0 mg/kg/injection, schedule: Q01DX011 (ip), vehicle: methylcellulose (MC))?
A: 3 (2×), 3 [8 of 10 alive], 3 [9 of 10 alive], 5, 6 (3×), 6 [8 of 10 alive], 8 [9 of 10 alive], 12 % of control

Q: What about the T/C (dose: 12.0 mg/kg/injection, schedule: Q01DX011 (ip), vehicle: methylcellulose (MC)) of the same compound?
A: 1, 2, 3, 4 [9 of 10 alive], 5 (2×), 6, 8 [9 of 10 alive], 10 % of control [9 of 10 alive]

Q: What about the T/C (dose: 50.0 mg/kg/injection, schedule: Q01DX011 (ip), vehicle: methylcellulose (MC)) of the same compound?
A: 1, 2 [8 of 10 alive], 3 (2×), 3 [7 of 10 alive], 3 [8 of 10 alive], 4, 5 [9 of 10 alive], 6 % of control

Q: What about the survivor count (dose: 80.0 mg/kg/injection, schedule: Q01DX010 (oral), vehicle: saline) of the same compound?
A: 4 of 10

Q: And the survivor count (dose: 160.0 mg/kg/injection, schedule: Q01DX010 (oral), vehicle: saline)?
A: 0 of 10

Q: And the survivor count (dose: 160.0 mg/kg/injection, schedule: Q01DX011 (ip), vehicle: alkali diluted with saline)?
A: 5 of 10

Q: What about the T/C (dose: 200.0 mg/kg/injection, schedule: Q01DX011 (ip), vehicle: methylcellulose (MC)) of the same compound?
A: 1 [9 of 10 alive] (2×), 2 [7 of 10 alive], 2 [8 of 10 alive], 3 [9 of 10 alive], 4 [8 of 10 alive], 5 [7 of 10 alive], 6 [8 of 10 alive], 6 % of control [9 of 10 alive]

Q: What about the survivor count (dose: 300.0 mg/kg/injection, schedule: Q01DX011 (ip), vehicle: carboxymethylcellulose (CMC)) of the same compound?
A: 5 of 10

Q: And the T/C [3]?
A: 1 [8 of 10 alive], 1 [9 of 10 alive] (2×), 3 [8 of 10 alive] (2×), 6 [7 of 10 alive], 7 % of control [7 of 10 alive]

Q: What about the survivor count [3] of the same compound?
A: 4 of 10 and 6 of 10

Q: What about the survivor count (dose: 320.0 mg/kg/injection, schedule: Q01DX010 (oral), vehicle: saline) of the same compound?
A: 0 of 10

Q: And the survivor count (dose: 350.0 mg/kg/injection, schedule: Q01DX011 (ip), vehicle: carboxymethylcellulose (CMC))?
A: 6 of 10

Q: What about the survivor count (dose: 400.0 mg/kg/injection, schedule: Q01DX011 (ip), vehicle: carboxymethylcellulose (CMC)) of the same compound?
A: 5 of 10

Q: And the survivor count (dose: 480.0 mg/kg/injection, schedule: Q03DX004 (oral), vehicle: alkali diluted with saline)?
A: 5 of 10

Q: And the survivor count (dose: 640.0 mg/kg/injection, schedule: Q01DX001 (ip), vehicle: alkali diluted with saline)?
A: 3 of 10

Q: What about the survivor count (dose: 640.0 mg/kg/injection, schedule: Q03DX004 (ip), vehicle: alkali diluted with saline) of the same compound?
A: 4 of 10

Q: And the survivor count (dose: 960.0 mg/kg/injection, schedule: Q01DX001 (ip), vehicle: alkali diluted with saline)?
A: 2 of 10

Q: `CN1C=NNc2ncnc(Cl)c21` was tested. Which survivor count (dose: 500.0 mg/kg/injection, schedule: Q01DX011 (ip), vehicle: carboxymethylcellulose (CMC)) did it give?
A: 0 of 10
